# Several values for one entry are separate records, joined by “and”; a condition that tells them apart may be missing. Equal entries are not always repeated. The whole screen tested about 300,000 compounds, of which about 3,700 (1.2%) were called active. This list was built around the results that the source calls inconclusive (neither active nor inactive); the mix of calls is not that of the screen. Calls follow the shape of the full dose curve; tested in HEK293 cells. Potencies of inconclusive entries are doubtful fits and often do not repeat.
# Assay: qHTS for Inhibitors of binding or entry into cells for Lassa Virus; also: nearly all actives have a fitted effect of over 50% in size
# Settings: Lassa virus pseudotype entry inhibition, cell reporter; series mostly up to 37.9 µM
# Potency is read from the fitted curve at half-maximal effect.
row,Compound,Potency
1,Fc1ccc(C2=CC(c3ccc(Br)o3)n3ncnc3N2)cc1 (centres undefined),"inconclusive: 1.26 µM [activator, single point]"
2,COc1ccc(-c2noc(CSc3nnc(-c4ccccc4)n3C)n2)cc1,"inconclusive: 35.5 µM [activator, single point]"
3,CCCOC(=O)c1ccc(Nc2c(C(=O)OCC)cnc3c(C)cc(Cl)cc23)cc1,"inconclusive: 0.562 µM [inhibitor, partial curve, poor fit]"
4,CC(=O)N1CCN(c2ccc(OC[C@H]3CO[C@](Cn4ccnc4)(c4ccc(Cl)cc4Cl)O3)cc2)CC1,"inconclusive: 29.1 µM [inhibitor, single point] and inconclusive: 2.59 µM [inhibitor, full curve, poor fit]"
5,Cc1cc2c(Nc3ccccc3)ncnc2s1,inactive
6,Clc1ncnc2scc(-c3ccc(Br)cc3)c12,"inconclusive: 31.6 µM [inhibitor, single point]"
7,O=C(COC(=O)c1ccc([N+](=O)[O-])s1)Nc1ccccc1,inactive
8,COc1ccc(/C=N/N=C2/SCC(=O)N2Cc2ccccc2)cc1,"inconclusive: 3.55 µM [inhibitor, partial curve, poor fit]"
9,Cc1cc(/C=N/NC(=O)CC2(C)OCCO2)c(C)n1-c1ccc(Cl)c(Cl)c1,"inconclusive: 10 µM [inhibitor, partial curve, poor fit]"
10,COc1cccc(/C=N/NC(=O)c2cc(-c3ccccn3)nc3ccccc23)c1O,"inconclusive: 11.2 µM [inhibitor, partial curve, poor fit]"
11,Cn1c(O)c(/C=N/Nc2ccccc2)c(=O)n(C)c1=O,"inconclusive: 35.5 µM [inhibitor, partial curve, poor fit]"
12,Nc1c(C(=O)Nc2ccccc2)sc2nc(-c3ccco3)ccc12,"inconclusive: 32.6 µM [inhibitor, single point]"
13,Cc1[nH]c2ccccc2c1C(=O)COC(=O)Cn1c(C)nc2ccccc21,"inconclusive: 1.26 µM [inhibitor, single point]"
14,Cc1ccccc1Nc1scc(-c2ccc(Br)cc2)[n+]1-c1ccccc1C,"inconclusive: 11.2 µM [inhibitor, partial curve, poor fit]"
15,O=C1CC(c2cccc(Cl)c2)CC(O)=C1C=Nc1cccc(Cl)c1 (centres undefined),inactive
16,Fc1ccc(NC(=S)Nc2ccccc2OC(F)F)cc1Cl,inactive
17,CCCCn1c(N)c(N(CC(C)C)C(=O)c2cc(-c3ccco3)nc3ccccc23)c(=O)[nH]c1=O,inactive
18,O=C(CP(=O)(c1ccccc1)c1ccccc1)Nc1nc2ccccc2s1,inactive
19,CN(C/C=C/c1ccccc1)C1CCCCC1,"inconclusive: 5.62 µM [inhibitor, single point]"
20,O=C(c1ccc(F)cc1)N1CCN2C(=O)c3ccccc3C12c1ccccc1 (centres undefined),"inconclusive: 3.16 µM [inhibitor, single point]"
21,CCOc1ccccc1CN1CCC(n2nccc2NC(=O)C2CCCC2)CC1,"inconclusive: 0.178 µM [activator, full curve]"
22,O=S(=O)(c1ccc(Cl)c(Cl)c1)c1snnc1-c1ccccc1,active: 7.08 µM
23,COc1ccc(Cl)cc1NC(=O)Nc1ccc(C(=O)N2CCCC2)cc1,inactive

# Two entries drawn at random from those above, as already listed:
row,Compound,Potency
9,Cc1cc(/C=N/NC(=O)CC2(C)OCCO2)c(C)n1-c1ccc(Cl)c(Cl)c1,"inconclusive: 10 µM [inhibitor, partial curve, poor fit]"
11,Cn1c(O)c(/C=N/Nc2ccccc2)c(=O)n(C)c1=O,"inconclusive: 35.5 µM [inhibitor, partial curve, poor fit]"

# In the list so far, 2 contain an NH in an aromatic ring.
row,Compound,Potency
13,Cc1[nH]c2ccccc2c1C(=O)COC(=O)Cn1c(C)nc2ccccc21,"inconclusive: 1.26 µM [inhibitor, single point]"
17,CCCCn1c(N)c(N(CC(C)C)C(=O)c2cc(-c3ccco3)nc3ccccc23)c(=O)[nH]c1=O,inactive

# Next records:

row,Compound,Potency
1,O=C(CCn1cnc(-c2ccccc2)c1-c1ccccc1)N/N=C/c1ccccc1O,active: 23.1 µM
2,Cc1ccc(C(=O)Nc2ccc3c(c2)OCO3)cc1S(=O)(=O)N1CCCCC1,"inconclusive: 35.5 µM [inhibitor, single point]"
3,CCOC(=O)C1CCCN(C(=O)c2ccc3c(c2)N(Cc2cccc(Cl)c2)C(=O)c2ccccc2S3(=O)=O)C1 (centres undefined),"inconclusive: 2.24 µM [inhibitor, full curve]"
4,CCN(CC)c1ccc(C(=O)N2CCC(c3ccncc3)CC2)cc1,"inconclusive: 35.5 µM [inhibitor, single point]"
5,Cc1cc(NC(=O)CCc2ccc(-c3ccccc3)o2)no1,"inconclusive: 2 µM [inhibitor, full curve, poor fit]"
6,Oc1ccccc1Oc1c(F)c(F)nc(N2CCCC2)c1F,active: 4.61 µM
7,COc1cccc(CNc2nc3ccccc3n2C(C)C)c1O,inactive
8,CCN(CC)S(=O)(=O)c1ccc2nc(NC(=O)c3ccc(Br)o3)sc2c1,inactive
9,COc1ccc(OC)c(-c2csc(NC(=O)Cc3ccccc3F)n2)c1,"inconclusive: 0.891 µM [inhibitor, full curve, poor fit]"
10,CCOc1ccc(CN2CCN(CC(O)Cn3c4ccccc4c4ccccc43)CC2)cc1 (centres undefined),"inconclusive: 29.1 µM [inhibitor, single point]"
11,Cc1cccc(NC(=O)CNC(=O)COC(=O)C2CC2C)c1C (centres undefined),inactive
12,O=C(Cn1cnc2c(cnn2-c2ccc(F)cc2)c1=O)NCc1ccco1,"inconclusive: 10 µM [inhibitor, partial curve, poor fit]"
13,O=C(Nc1ccc(N2CCCC2)cc1)c1cccc(Cl)c1Cl,inactive
14,CCOc1cccc(C2c3[nH]c4ccccc4c3CCN2C(=O)CCc2ccccc2)c1 (centres undefined),"inconclusive: 10 µM [inhibitor, partial curve]"
15,Cc1cc(C(=O)N2CCCC(CNS(=O)(=O)c3cccs3)C2)nn1C (centres undefined),"inconclusive: 0.794 µM [inhibitor, single point]"
16,O=C(NCc1noc2ccccc12)Nc1ccc(F)cc1F,"inconclusive: 11.2 µM [inhibitor, partial curve, poor fit]"
17,Cc1cc(C(=O)CSc2ncccn2)c(C)n1-c1cccc(F)c1,"inconclusive: 18.4 µM [inhibitor, single point]"
18,COc1ccc(NC(=O)N2CCCC(C(=O)NCCc3ccccc3)C2)cc1 (centres undefined),"inconclusive: 4.47 µM [activator, full curve]"
19,COc1ccc(S(=O)(=O)N(CC(=O)N2CCCC2)Cc2ccccc2)cc1,inactive
20,O=C(Nc1ccccc1)c1ccncc1,inactive
21,COC(=O)[C@H](CC(C)C)NC(=O)N1CCN(c2cccc(C(F)(F)F)c2)CC1,"inconclusive: 6.51 µM [activator, single point]"
22,Cc1ccc(NC(=O)CN(C)CC(=O)Nc2cccc(F)c2)cc1S(=O)(=O)N1CCCCCC1,"inconclusive: 15.8 µM [inhibitor, single point]"
23,O=C(COc1cccc2c1CCN(Cc1ccc(Cl)cc1)C2=O)N1CCOCC1,"inconclusive: 10 µM [inhibitor, single point]"

row,Compound,Potency
1,Cc1ccc(S(=O)(=O)N2CCOCC2)cc1C(=O)N(C)CCOc1ccc(Cl)cc1,"inconclusive: 35.5 µM [inhibitor, single point]"
2,COC(=O)C(C)NC(=O)c1ccc(C(C)(C)C)cc1 (centres undefined),"inconclusive: 11.2 µM [inhibitor, partial curve]"
3,O=C1c2ccccc2C(=O)c2c1ccc1c(=O)n(-c3ccccc3)[nH]c21,inactive
4,COc1ccc(CCN(C)C(=O)c2cc(-c3ccccc3)nc3ccccc23)cc1OC,inactive
5,O=C(CSc1ccccc1)Nc1ccc2c(c1)OCCO2,"inconclusive: 10 µM [inhibitor, partial curve, poor fit]"
6,Cc1ccc(C(=O)Nc2cccc(C(=O)O)c2)cc1,active: 5.8 µM
7,CCCOc1ccccc1C1CC(=O)Nc2cc3c(cc21)OCCO3 (centres undefined),"inconclusive: 0.891 µM [inhibitor, full curve]"
8,COc1ccc(NCc2nnc(SCC(=O)NCc3ccccc3)n2-c2ccccc2OC)cc1,inactive
9,COC(=O)CNC(c1ccccc1)c1cc(C)ccc1NC(=O)c1cccc(Cl)c1 (centres undefined),"inconclusive: 13 µM [inhibitor, partial curve]"
10,CCCn1c(O)c(/C=C2\C=NN=C2c2ccccc2)sc1=S,"inconclusive: 29.1 µM [inhibitor, single point]"
11,CCOC(=O)c1ccc(Nc2nc(C(=O)OCC)nc3ccccc23)cc1,"inconclusive: 35.5 µM [inhibitor, single point] and inconclusive: 11.2 µM [inhibitor, partial curve, poor fit]"
12,Cn1ccnc1Sc1nc2ccccc2nc1NS(=O)(=O)c1ccccc1,inactive
13,CCC(=O)Nc1cccc(-n2nnnc2SCC(=O)c2ccc(C)c(C)c2)c1,"inconclusive: 29.1 µM [inhibitor, partial curve, poor fit]"
14,Cc1ccc(C)c(CN2C(=O)c3ccccc3S(=O)(=O)c3ccc(C(=O)N4CCN(C)CC4)cc32)c1,"inconclusive: 3.55 µM [activator, single point]"
15,COc1ccc(OCCSc2ncn[nH]2)cc1,"inconclusive: 11.6 µM [inhibitor, single point]"
16,COC(=O)Nc1sc2c(c1C(N)=O)CCC(C)C2 (centres undefined),"inconclusive: 2 µM [activator, partial curve, poor fit]"
17,COc1ccc(OCc2cc(C(=O)NC3CCc4ccccc43)no2)c(Cl)c1 (centres undefined),inactive
18,C/C(CC(C)(C)c1ccccc1)=N\NS(=O)(=O)c1ccccc1,inactive
19,CC1CN(C(=O)CCC(=O)NCc2cccs2)c2cc(Cl)ccc2O1 (centres undefined),"inconclusive: 3.16 µM [inhibitor, single point]"
20,COC(=O)c1ccccc1Oc1cnc2ccccc2n1,"inconclusive: 35.5 µM [activator, single point]"
21,Cc1ccc2c(c1)c1c(c(=O)n(-c3ccccc3)c(=O)n1CC(=O)NCCC1=CCCCC1)n2C,inactive
22,O=C(COc1coc(CN2CCc3ccccc3C2)cc1=O)Nc1cccc([N+](=O)[O-])c1,inactive
23,COc1ccc(N(C(=O)c2ccccc2C)S(=O)(=O)c2ccc(C)cc2)cc1,"inconclusive: 31.6 µM [inhibitor, partial curve, poor fit]"
